Laboratory results taken from publication PMC11234212.
No constants are given. Whether binding was seen depends on the method and setting. Binding seen in cells or lysates may run through a third protein. Some results given as binding are weak or reduced against the parent protein; the word gives no strength.

By UniProt entry, the sequences of proteins in these tests, tags left out.
UniProt Q9UKM9: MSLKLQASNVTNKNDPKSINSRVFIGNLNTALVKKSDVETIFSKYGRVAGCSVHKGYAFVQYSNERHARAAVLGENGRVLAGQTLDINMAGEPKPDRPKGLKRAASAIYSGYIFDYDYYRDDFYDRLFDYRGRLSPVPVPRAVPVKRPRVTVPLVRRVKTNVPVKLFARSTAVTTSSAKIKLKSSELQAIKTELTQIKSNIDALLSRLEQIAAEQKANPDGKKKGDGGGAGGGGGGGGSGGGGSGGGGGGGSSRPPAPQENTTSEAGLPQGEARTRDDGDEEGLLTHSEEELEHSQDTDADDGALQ

Biological target: T1, O-GlcNAc transferase (OGT) (human (endogenous in Hep3B and Huh7)) (UniProt O15294)
T1 sequence: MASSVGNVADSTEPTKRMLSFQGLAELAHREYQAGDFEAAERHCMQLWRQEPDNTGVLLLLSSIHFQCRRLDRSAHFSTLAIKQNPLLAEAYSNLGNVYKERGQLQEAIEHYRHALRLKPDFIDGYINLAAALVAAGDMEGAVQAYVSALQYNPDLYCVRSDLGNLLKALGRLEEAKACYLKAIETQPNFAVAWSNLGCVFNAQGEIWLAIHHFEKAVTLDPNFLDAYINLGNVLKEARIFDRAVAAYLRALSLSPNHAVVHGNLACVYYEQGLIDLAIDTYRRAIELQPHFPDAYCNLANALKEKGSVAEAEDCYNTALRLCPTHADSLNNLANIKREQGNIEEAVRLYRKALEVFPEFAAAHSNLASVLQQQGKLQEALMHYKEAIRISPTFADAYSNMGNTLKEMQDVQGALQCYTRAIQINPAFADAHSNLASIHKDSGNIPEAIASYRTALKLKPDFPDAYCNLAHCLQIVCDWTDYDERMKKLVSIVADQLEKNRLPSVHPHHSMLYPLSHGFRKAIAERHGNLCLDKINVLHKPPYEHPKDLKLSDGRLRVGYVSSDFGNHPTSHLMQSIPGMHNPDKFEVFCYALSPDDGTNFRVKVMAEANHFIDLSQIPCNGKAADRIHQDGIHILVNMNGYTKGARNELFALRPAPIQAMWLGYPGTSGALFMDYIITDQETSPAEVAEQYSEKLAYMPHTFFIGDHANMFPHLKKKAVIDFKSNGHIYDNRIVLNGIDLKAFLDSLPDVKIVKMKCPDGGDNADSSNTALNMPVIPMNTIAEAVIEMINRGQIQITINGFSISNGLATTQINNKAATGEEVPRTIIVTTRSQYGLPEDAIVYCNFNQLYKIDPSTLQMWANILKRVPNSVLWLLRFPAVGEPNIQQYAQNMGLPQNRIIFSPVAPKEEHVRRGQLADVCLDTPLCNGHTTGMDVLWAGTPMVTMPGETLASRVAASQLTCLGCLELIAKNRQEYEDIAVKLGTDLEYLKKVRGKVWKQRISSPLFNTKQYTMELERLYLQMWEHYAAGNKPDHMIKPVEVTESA
Experiment: co-IP; endogenous proteins in HCC cell lysates; antibodies (anti-RALY, anti-OGT, anti-TRIM27 or IgG) on rProtein A/G magnetic beads, lysate overnight at 4°C, three washes, western blot; for RALY-TRIM27 also cells with or without TMG

binding: binds
Substance: RALY (from UniProt Q9UKM9 1-306)
